Source: PMC8274477
Results are given in words; binding and its absence hold for the method and conditions named. Some results given as binding are weak or reduced against the parent protein; the word gives no strength.

Sequences of proteins named here, by UniProt entry; tags and fusion partners are left off.
UniProt Q7Z5L9: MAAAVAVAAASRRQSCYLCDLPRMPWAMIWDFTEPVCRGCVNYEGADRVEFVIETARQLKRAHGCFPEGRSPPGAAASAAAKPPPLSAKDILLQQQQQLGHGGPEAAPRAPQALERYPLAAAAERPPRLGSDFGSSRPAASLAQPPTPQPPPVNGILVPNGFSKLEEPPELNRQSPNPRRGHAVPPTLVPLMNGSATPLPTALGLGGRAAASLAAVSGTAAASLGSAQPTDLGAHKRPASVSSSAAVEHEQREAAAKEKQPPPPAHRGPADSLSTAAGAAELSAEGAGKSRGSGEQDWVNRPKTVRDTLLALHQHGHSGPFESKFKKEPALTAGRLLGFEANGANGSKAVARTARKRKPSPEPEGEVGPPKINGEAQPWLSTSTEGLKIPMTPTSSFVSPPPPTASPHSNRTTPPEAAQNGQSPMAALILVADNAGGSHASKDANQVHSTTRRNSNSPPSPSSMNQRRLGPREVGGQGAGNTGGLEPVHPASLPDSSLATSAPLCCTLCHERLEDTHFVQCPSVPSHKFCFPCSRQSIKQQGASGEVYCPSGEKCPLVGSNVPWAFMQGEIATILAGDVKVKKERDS
UniProt O95619: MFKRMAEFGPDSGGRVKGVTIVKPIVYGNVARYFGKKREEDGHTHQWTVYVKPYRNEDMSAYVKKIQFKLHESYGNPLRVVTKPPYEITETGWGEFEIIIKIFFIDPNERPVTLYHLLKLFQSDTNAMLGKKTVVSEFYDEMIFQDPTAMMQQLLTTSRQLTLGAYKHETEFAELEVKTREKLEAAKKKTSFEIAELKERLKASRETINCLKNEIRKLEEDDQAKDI

Key:
Assay in all cases: peptide or protein array; HuProt human proteome microarray; 5 ug/5 ml biotin-labelled LUBAC or OTULIN in solution, 1 h at room temperature; Cy5-streptavidin, scanned at 635 nm; BSA as negative control; hits: Z-score >= 3 and I_(Mean_Ratio) >= 1.4; both purified
[1] = molecular target: IRF2BP2 (human) (UniProt Q7Z5L9)
[2] = molecular target: T1, QARS (human) (UniProt P47897)
T1 sequence: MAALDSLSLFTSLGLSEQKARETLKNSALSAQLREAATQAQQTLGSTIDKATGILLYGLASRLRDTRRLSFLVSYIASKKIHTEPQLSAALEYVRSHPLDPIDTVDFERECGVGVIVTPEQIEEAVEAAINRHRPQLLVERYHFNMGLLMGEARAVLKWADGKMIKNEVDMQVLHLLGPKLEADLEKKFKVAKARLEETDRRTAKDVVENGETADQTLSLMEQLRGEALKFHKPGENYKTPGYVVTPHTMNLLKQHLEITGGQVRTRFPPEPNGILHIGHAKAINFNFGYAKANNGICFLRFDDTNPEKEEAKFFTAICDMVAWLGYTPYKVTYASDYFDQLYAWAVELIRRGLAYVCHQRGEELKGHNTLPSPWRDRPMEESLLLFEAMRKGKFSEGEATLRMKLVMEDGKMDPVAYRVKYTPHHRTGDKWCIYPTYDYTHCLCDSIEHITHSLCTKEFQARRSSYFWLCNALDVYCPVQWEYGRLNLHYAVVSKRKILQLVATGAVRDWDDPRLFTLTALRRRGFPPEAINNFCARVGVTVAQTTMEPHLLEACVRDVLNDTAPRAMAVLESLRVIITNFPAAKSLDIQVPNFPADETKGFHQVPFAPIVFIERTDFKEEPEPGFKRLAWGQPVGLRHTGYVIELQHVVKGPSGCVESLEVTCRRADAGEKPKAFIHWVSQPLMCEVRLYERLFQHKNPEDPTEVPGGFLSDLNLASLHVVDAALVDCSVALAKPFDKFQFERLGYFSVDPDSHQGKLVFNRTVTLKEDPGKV

[3] = molecular target: T2, SMPD1 (human) (UniProt P17405)
T2 sequence: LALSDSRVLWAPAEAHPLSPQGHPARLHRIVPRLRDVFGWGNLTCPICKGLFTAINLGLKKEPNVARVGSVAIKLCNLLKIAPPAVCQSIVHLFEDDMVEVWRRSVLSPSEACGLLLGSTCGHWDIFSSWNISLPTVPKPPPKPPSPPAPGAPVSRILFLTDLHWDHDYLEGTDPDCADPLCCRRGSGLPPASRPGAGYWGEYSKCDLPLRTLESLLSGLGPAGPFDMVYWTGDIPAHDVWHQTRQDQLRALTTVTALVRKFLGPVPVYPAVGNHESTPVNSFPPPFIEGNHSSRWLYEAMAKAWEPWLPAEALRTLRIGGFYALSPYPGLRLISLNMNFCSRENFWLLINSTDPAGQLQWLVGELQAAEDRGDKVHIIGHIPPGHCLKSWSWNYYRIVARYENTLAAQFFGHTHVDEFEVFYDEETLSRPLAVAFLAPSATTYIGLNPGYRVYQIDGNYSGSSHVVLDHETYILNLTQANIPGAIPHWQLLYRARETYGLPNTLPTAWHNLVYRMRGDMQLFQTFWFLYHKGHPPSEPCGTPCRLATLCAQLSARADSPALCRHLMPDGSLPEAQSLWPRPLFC

[4] = molecular target: T3, SOHLH2 (human) (UniProt Q9NX45)
T3 sequence: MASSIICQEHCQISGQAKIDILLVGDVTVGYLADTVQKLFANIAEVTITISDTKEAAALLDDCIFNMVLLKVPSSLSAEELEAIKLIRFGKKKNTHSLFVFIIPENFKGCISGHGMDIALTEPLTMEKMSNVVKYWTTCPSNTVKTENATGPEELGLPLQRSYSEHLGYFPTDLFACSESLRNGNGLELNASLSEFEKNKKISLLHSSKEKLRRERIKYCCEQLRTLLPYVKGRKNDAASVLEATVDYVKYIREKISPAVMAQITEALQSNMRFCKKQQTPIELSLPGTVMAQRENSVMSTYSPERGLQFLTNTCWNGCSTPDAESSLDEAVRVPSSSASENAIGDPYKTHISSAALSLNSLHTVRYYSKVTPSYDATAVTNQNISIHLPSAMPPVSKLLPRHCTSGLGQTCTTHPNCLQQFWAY

[5] = molecular target: YEATS4 (human) (UniProt O95619)

Measured: binding

linear ubiquitin chain assembly complex (LUBAC), purified as HIS-tagged HOIP with the subunit HOIL-1, biotin-labelled (from UniProt Q96EP0 1-1072; Q9BYM8 1-510)
binds: all assays above
